Data on one substance can be found in publication doi:10.1101/2021.04.22.439970.

Amino acid sequences for entries named in this document (tags omitted). A change or cut given only in a name is not applied to a line headed by its entry.
UniProt P06104: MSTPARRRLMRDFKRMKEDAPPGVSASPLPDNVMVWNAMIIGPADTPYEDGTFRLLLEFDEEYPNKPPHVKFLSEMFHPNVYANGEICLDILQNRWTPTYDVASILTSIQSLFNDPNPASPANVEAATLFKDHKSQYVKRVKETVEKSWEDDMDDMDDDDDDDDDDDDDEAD
UniProt P0C0W9: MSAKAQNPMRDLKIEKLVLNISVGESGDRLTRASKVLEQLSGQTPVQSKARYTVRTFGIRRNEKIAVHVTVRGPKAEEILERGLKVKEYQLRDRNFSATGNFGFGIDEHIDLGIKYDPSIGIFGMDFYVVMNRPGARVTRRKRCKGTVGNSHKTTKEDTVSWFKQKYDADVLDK

These are yes or no findings as the source states them, for the method shown. In cells and extracts the contact can be indirect. Binding can be weak; no strength is given.

The target in the assay is Rad6-FLAG (S. cerevisiae) (UniProt P06104). Briefly: co-IP.

Take “ribosomal protein uL5 (from UniProt P0C0W9)”: the binding result is “binds”.
